Laboratory results reported in PubChem BioAssay (EPA / NIEHS).
Inconclusive results, whose numbers are uncertain, are shown with a selection of clear calls. For part of these data: Where the call is inconclusive, the potency comes from a doubtful curve fit. The source holds several records for some structures; these can differ, active in one and inactive in another. Calls of active or inactive are those of the source. How the source made its calls: active means hit-call score of the fitted dose curve at least 0.9, where 1 is the maximum; inconclusive means response in the unintended direction; inactive means score below 0.9.

Protein sequences, listed by entry. Tags and fused reporters are not part of them.
UniProt P04637, whole entry, looked up: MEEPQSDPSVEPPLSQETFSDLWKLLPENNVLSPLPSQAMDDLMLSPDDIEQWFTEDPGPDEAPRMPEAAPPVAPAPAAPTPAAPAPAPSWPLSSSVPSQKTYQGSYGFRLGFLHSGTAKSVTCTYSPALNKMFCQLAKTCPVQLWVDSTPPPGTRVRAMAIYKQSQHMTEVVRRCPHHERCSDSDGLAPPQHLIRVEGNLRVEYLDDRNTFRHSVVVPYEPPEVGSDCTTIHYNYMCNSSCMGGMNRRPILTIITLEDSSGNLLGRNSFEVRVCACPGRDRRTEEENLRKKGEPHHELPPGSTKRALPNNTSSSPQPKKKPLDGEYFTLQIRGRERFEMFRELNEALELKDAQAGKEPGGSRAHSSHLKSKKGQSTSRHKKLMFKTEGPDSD

Experiments:
[1] = biological target: Cellular tumor antigen p53 (Homo sapiens) (UniProt P04637); assay: TOX21_p53_BLA_p5_ratio: Tox21 HCT-116 p53 Agonism Beta-lactamase Assay, Ratio, Phase 5 (AID 2283599)
Procedure, shortened: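 Beta-lactamase reporter ratio (blue 460 nm over green 530 nm, 405 nm excitation) after 2 h CCF4-AM loading, in HCT-116 cells exposed 16 h at 37 C to compounds pinned at 217-fold dilution. Increases relative to DMSO baseline scored.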

[2] = TOX21_p53_BLA_p5_viability: Viability Assessment in the Tox21 HCT-116 p53 Agonism Beta-lactamase Assay, Phase 5 (AID 2283600)
Procedure, shortened: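 Viability is taken from cellular ATP content, measured by luciferase luminescence in the same wells after the beta-lactamase ratio read. Cells are seeded at 4000 per well and exposed to DMSO-dissolved compounds, diluted 217-fold, for 16 h.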

[3] = TOX21_p53_BLA_p4_viability: Viability Assessment in the Tox21 HCT-116 p53 Agonism Beta-lactamase Assay, Phase 4 (AID 2283597);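 further: hits lower the luminescence signal meaning cytotoxicity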
Procedure, shortened: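 Viability is taken as cellular ATP: after 16 h compound exposure of HCT116 cells and a 2 h room-temperature CCF4-AM substrate step, CellTiter-Glo reagent is added and luminescence is measured 30 min later.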

[4] = CCTE_Shafer_MEA_dev_bursting_electrodes_number: CCTE's Neural Network Formation Assay for Number of Bursting Electrodes, Shafer Lab (AID 2284043)
Procedure, shortened: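 Number of electrodes reaching ≥1 burst every 2 min was recorded at DIV 5, 7, 9 and 12 and collapsed as trapezoidal area under the curve. Cultures were rat cortical neurons on MEA plates, dosed continuously from plating with medium and treatment refreshed on DIV 5 and 9.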

[5] = CCTE_Shafer_MEA_acute_AB: CCTE's Alamar Blue Assay for Cytotoxicity in the Neural Acute Assay, Shafer Lab (AID 2284069);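 further: active compounds lower the viability signal compared with DMSO wells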
Procedure, shortened: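 Primary rat cortical neurons on MEA plates, exposed acutely after baseline recording on day 13 or 15 post-plating. Viability by CellTiter Blue resazurin reduction (1:6 reagent dilution), fluorescence 544/590 nm; loss of signal versus DMSO.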

[6] = CCTE_Shafer_MEA_dev_AB: CCTE's Alamar Blue Assay for Cytotoxicity in the Neural Network Formation Assay, Shafer Lab (AID 2284083);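 further: twelve days of exposure from plating with re-dosing on DIV 5 and 9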
Procedure, shortened: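 Primary rat cortical neurons on PEI-coated 48-well MEA plates, 1.5 x 10^5 cells/well in laminin drop; compound exposure from day 0 of plating for twelve days, renewed at medium changes on DIV 5 and 9. Viability read as resazurin reduction by fluorescence, relative to DMSO.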

[7] = CCTE_Mundy_HCI_hN2_NOG_NeuronCount: CCTE's Neurite Outgrowth Assay in human hN2 cells for Neuron Count, Mundy Lab (AID 2284221)
Procedure, shortened: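 Read-out is the number of betaIII-tubulin-positive neurons imaged by automated high-content analysis, with DMSO as negative control.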

[8] = CCTE_Mundy_HCI_Cortical_Synap_Neur_Matur_NeuronCount: CCTE's Synaptogenesis and Neurite Maturation Assay in rat cortical cells for Neuron Count, Mundy Lab (AID 2284242);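 further: neuron number from Hoechst nuclei and MAP2 staining by high-content imaging; hits reduce neuron count versus DMSO baseline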
Procedure, shortened: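 Rat cortical cultures; AraC DIV 5; chemical dosing + media change DIV 7 to DIV 12 (288.33 h readout). Fix, Hoechst, anti-MAP2/anti-synaptophysin immunostain; HCI neuron count vs DMSO baseline.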

[9] = IUF_NPC5_oligodendrocyte_differentiation_120hr: Leibniz Research Institute for Environmental Medicine (IUF) 120-hour Oligodendrocyte Differentiation Assay (NPC5) (AID 2284304);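 further: primary human fetal neural progenitor spheres plated to migrate and differentiate; share of O4-positive cells among Hoechst nuclei found by CNN image analysis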
Procedure, shortened: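 Human primary NPC neurospheres migrating and differentiating on laminin for 120 h under continuous compound exposure (serial dilution, solvent control). Endpoint: percent O4+ oligodendrocytes among Hoechst nuclei, detected by CNN image analysis, with DMSO as negative control.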

[10] = IUF_NPC4_neurite_area_120hr: Leibniz Research Institute for Environmental Medicine (IUF) 120-hour Neuronal Morphology Assay for Neurite Area (NPC4) (AID 2284305)
Procedure, shortened: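 Neurite area (pixels, nuclei excluded) of TUBB3-positive neurons from hNPC spheres differentiating 5 days under continuous exposure at 37 C, 5% CO2. High-content imaging; loss of signal versus DMSO control across 7 concentrations.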

[11] = TAMU_PeakParms_SingleDonor1434_QT: Texas A&M University (TAMU) 1.5-hr Human Induced Pluripotent Stem Cell (iPSC)-derived Cardiomyocytes Calcium (Ca+2) Flux Assay for Cardiotoxicity: QT (decay-rise ratio) (AID 2284235)
Procedure, shortened: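 Decay/rise ratio of calcium-flux fluorescence scored after 90 min exposure (37C) of donor 1434 iPSC cardiomyocytes to 0.2–100 uM (0.5% DMSO). Beat-cessation and severe-notch points removed; POD is EC05, a 5% rise over DMSO.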

[12] = biological target: Cellular tumor antigen p53 (Homo sapiens) (UniProt P04637); assay: TOX21_p53_BLA_p4_ratio: Tox21 HCT-116 p53 Agonism Beta-lactamase Assay, Ratio, Phase 4 (AID 2283601)
Procedure, shortened: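 Signal is the blue/green (460nm/530nm) ratio of cleaved versus uncleaved CCF4-AM substrate, read after 2 h substrate loading. Cells were HCT116 carrying the p53-responsive beta-lactamase reporter, dosed 16 h at 37C, 5% CO2; CellTiter-Glo measured in parallel.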

[13] = system: SRY-box transcription factor 2 (SOX2) Protein Expression, Deisenroth Lab, SOX2 (gene 6657); assay: CCTE_Deisenroth_DEVTOX-GLR_Endo_SOX2: CCTE's DevTox GLR-Endo Assay Evaluation of SRY-box transcription factor 2 (SOX2) Protein Expression, Deisenroth Lab (AID 2284412)
Procedure, shortened: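 Endpoint is percent SOX2-positive cells (SOX2+ count/total cells) minus 0.2% DMSO control, from high-content imaging of fixed, nuclear-stained RUES2-GLR cells. Dosing twice at 24 h intervals over 48 h differentiation, 1 nM–200 uM in 10 points.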

[14] = system: SRY-box transcription factor 17 (SOX17) Protein Expression, Deisenroth Lab, SOX17 (gene 64321); assay: CCTE_Deisenroth_DEVTOX-GLR_Pluri_SOX17: CCTE's DevTox GLR-Pluri Assay Evaluation of SRY-box transcription factor 17 (SOX17) Protein Expression, Deisenroth Lab (AID 2284427)
Procedure, shortened: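 Seed cells 24 h; differentiate 48 h, dosing at 0 and 24 h (1 nM - 200 uM); fix, stain nuclei, image 5 fields per well; count SOX17+ cells over total cells and subtract 0.2% DMSO control.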

[15] = system: Brachyury (BRA) Protein Expression, Deisenroth Lab, TBXT (gene 6862); assay: CCTE_Deisenroth_DEVTOX-GLR_Pluri_BRA: CCTE's DevTox GLR-Pluri Assay Evaluation of Brachyury (BRA) Protein Expression, Deisenroth Lab (AID 2284429)
Procedure, shortened: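 Percent BRA+ cells (BRA+ count over total cells) by high-content imaging of fixed RUES2-GLR cultures, corrected by 0.2% DMSO control. Cells received two doses over 48-hour differentiation, 1 nM–200 uM, n=4 experiments.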

With O=S(=O)(c1ccccc1)c1ccc(Cl)cc1 the outcome [1] was “inactive” and the AC50 [2] was inconclusive: 46.1 µM.

For CC1(C)S[C@@H]2[C@H](NC(=O)[C@H](N)c3ccc(O)cc3)C(=O)N2[C@H]1C(=O)O, the outcome [3] was “inactive”, the outcome [4] was “inactive” and the AC50 [5] was inconclusive: 2.5 µM. For the same compound, the AC50 [6] was inconclusive: 0.0773 µM, the AC50 [7] was inconclusive: 11.7 µM and the AC50 [8] was inconclusive: 50 µM. The outcome [9] was “inactive” and the AC50 [10] was inconclusive: 0.0221 µM.

With COc1ccc(CCN(C)CCCC(C#N)(c2ccc(OC)c(OC)c2)C(C)C)cc1OC (stereo not given) the AC50 [3] was active: 39.2 µM, the AC50 [2] was inconclusive: 41.7 µM and the outcome [11] was “inactive”.

In the case of CC(C)(C)C(=O)OCOC(=O)C1N2C(=O)CC2S(=O)(=O)C1(C)C (stereo not given), the AC50 [1] is reported as inconclusive: 0.0513 µM and the AC50 [2] is reported as inconclusive: 23 µM.

With CCCNC(C)C(=O)Nc1ccccc1C (stereo not given) the AC50 [3] was inconclusive: 23 µM, the AC50 [2] was inconclusive: 23 µM and the AC50 [12] was inconclusive: 23 µM.

In the case of C[C@@H]1O[C@@H](OC[C@H]2O[C@@H](Oc3c(-c4ccc(OCCO)c(OCCO)c4)oc4cc(OCCO)cc(O)c4c3=O)[C@H](O)[C@@H](O)[C@@H]2O)[C@H](O)[C@H](O)[C@H]1O, the AC50 [1] is reported as inconclusive: 23 µM and the AC50 [2] is reported as inconclusive: 23 µM.

In the case of CCCCc1nc(Cl)c(CO)n1Cc1ccc(-c2ccccc2-c2nn[nH]n2)cc1, the AC50 [3] is reported as inconclusive: 23 µM and the outcome [12] is reported as “inactive”.

For c1ccc(CN(CC2=NCCN2)c2ccccc2)cc1, the outcome [2] was “inactive”.

For COc1cc2c(Nc3ccc(Br)cc3F)ncnc2cc1OCC1CCN(C)CC1, the outcome [3] was “inactive”, the AC50 [13] was active: 8.62 µM and the AC50 [14] was inconclusive: 0.449 µM. For the same compound, the AC50 [15] was inconclusive: 0.00452 µM.

In the case of CC(C)[C@H](N)C(=O)OCCOCn1cnc2c(=O)[nH]c(N)nc21, the AC50 [1] is reported as inconclusive: 23 µM, the AC50 [2] is reported as inconclusive: 23 µM and the AC50 [12] is reported as inconclusive: 23 µM.
